Test results reported in the supplement of paper PMC10849652.
Some of the results follow.

Amino acid sequences for entries named in this document (tags omitted). A change or cut given only in a name is not applied to a line headed by its entry.
UniProt Q8N138: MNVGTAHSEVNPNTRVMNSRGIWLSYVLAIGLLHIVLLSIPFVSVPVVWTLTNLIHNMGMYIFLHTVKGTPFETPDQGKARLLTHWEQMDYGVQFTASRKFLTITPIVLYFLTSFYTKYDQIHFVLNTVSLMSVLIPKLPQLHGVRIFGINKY
UniProt P0C024: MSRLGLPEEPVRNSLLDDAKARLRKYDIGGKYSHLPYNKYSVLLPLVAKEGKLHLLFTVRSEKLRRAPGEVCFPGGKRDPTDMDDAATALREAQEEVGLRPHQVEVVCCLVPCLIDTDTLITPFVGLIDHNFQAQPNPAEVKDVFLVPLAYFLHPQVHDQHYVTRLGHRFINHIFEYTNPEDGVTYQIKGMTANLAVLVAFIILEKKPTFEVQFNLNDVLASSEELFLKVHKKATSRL
UniProt Q9UBD5: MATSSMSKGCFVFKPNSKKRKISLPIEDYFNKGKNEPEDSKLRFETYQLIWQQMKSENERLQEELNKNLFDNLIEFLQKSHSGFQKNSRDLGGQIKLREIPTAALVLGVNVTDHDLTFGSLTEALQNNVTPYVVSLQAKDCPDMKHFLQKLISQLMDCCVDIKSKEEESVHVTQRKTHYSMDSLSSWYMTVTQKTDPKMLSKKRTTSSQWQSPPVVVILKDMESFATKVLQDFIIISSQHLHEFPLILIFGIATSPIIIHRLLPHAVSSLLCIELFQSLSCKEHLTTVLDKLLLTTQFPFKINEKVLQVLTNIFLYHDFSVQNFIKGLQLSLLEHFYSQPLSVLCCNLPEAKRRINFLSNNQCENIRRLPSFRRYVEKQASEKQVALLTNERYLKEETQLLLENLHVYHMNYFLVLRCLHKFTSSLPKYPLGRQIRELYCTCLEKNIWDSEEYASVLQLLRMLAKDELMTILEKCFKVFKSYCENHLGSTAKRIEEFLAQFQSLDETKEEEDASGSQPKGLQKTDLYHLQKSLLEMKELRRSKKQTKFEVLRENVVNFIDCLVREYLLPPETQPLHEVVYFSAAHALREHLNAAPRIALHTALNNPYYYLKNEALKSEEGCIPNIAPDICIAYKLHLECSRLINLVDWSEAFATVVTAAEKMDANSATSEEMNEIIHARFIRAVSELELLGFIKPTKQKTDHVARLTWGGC
UniProt Q9H6K4: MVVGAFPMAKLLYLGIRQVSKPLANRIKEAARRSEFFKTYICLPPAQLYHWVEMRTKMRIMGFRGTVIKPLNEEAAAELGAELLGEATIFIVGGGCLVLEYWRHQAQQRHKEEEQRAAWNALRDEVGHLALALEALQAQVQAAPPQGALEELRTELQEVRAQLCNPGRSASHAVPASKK
UniProt Q8WZ82: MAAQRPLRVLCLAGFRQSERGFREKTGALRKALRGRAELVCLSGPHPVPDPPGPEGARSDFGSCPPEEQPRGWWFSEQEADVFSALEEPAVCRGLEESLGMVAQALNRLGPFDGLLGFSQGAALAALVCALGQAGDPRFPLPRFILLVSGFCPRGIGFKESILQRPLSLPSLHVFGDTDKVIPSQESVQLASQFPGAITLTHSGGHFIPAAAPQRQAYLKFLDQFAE
UniProt Q9Y5N6: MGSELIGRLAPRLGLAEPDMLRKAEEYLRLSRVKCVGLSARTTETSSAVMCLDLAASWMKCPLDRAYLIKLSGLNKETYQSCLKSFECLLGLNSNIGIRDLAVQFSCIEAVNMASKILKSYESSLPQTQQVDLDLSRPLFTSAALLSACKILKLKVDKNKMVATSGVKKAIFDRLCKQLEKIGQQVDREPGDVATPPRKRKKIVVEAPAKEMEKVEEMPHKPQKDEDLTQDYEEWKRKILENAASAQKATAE
UniProt Q9UBU9: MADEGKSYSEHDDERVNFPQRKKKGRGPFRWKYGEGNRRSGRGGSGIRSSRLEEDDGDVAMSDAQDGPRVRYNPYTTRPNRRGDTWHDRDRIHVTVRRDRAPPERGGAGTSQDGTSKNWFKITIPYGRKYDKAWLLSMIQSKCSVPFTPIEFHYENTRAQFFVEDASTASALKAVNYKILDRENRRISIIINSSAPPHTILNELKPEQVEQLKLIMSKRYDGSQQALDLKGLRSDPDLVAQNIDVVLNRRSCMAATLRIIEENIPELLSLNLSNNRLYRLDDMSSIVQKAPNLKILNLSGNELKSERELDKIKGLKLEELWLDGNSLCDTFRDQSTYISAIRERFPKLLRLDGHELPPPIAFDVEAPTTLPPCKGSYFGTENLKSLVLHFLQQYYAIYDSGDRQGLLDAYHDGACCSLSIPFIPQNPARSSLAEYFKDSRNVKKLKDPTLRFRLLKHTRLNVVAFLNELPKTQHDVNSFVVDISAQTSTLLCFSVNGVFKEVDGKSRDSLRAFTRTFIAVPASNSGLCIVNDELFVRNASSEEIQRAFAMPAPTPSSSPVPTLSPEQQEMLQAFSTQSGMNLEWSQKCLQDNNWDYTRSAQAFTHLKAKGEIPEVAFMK
UniProt Q6ZVK8: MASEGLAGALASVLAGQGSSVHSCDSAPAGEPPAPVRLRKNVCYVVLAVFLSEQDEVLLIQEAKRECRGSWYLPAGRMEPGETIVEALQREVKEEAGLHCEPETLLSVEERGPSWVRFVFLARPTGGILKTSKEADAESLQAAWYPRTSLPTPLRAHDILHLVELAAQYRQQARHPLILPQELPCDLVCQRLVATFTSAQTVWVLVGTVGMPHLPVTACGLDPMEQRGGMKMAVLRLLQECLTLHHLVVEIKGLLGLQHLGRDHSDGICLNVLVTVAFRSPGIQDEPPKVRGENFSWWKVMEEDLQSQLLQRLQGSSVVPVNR
UniProt Q9BRQ3: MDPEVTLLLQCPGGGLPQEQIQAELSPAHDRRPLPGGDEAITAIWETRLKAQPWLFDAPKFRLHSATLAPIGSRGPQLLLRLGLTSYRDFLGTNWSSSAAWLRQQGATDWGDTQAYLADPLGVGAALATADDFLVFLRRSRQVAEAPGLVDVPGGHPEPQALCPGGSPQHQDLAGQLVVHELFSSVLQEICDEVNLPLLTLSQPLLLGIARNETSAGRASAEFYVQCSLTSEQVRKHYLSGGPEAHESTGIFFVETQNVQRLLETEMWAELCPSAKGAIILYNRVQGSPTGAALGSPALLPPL
UniProt O43809, whole entry, looked up: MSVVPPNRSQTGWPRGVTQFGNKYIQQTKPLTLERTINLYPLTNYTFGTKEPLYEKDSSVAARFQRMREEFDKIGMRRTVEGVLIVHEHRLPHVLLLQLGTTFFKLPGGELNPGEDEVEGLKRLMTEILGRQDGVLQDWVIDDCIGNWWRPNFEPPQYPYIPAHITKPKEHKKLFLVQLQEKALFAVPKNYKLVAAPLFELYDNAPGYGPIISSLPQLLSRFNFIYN
UniProt P11926: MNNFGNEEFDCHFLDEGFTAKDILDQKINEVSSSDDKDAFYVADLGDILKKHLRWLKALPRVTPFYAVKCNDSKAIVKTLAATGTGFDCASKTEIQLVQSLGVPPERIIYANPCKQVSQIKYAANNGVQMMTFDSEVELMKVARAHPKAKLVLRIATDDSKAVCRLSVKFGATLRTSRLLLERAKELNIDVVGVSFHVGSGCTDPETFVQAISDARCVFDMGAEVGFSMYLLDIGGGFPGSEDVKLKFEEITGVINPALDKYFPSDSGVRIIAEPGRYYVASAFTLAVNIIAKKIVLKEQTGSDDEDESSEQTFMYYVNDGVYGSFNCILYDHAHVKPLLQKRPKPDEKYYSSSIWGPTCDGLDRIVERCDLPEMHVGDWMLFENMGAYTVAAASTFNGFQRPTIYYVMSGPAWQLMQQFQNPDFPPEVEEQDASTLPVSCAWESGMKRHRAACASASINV
UniProt Q5BKU9: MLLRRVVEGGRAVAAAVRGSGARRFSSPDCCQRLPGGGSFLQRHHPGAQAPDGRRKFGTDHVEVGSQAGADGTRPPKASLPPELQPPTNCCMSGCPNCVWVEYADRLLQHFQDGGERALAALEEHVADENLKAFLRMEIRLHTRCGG
UniProt Q8NE18: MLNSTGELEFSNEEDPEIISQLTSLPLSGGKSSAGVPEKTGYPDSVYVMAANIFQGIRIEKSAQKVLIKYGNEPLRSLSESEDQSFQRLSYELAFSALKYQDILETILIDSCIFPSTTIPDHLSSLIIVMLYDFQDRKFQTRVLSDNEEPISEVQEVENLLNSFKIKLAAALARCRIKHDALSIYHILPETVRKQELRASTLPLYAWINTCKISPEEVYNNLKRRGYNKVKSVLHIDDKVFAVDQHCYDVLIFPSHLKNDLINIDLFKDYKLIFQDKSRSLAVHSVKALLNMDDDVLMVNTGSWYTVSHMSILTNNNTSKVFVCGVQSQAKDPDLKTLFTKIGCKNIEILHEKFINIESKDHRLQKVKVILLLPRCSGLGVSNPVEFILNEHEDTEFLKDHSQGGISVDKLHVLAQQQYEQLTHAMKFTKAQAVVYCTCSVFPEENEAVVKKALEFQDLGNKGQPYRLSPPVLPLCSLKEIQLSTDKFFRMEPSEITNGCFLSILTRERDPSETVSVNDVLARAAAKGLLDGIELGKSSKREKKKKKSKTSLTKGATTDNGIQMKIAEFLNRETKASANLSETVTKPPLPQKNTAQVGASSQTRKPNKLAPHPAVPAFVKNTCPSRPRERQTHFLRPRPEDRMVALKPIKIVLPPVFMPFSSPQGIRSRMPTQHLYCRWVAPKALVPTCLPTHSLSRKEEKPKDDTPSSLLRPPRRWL
UniProt Q01804: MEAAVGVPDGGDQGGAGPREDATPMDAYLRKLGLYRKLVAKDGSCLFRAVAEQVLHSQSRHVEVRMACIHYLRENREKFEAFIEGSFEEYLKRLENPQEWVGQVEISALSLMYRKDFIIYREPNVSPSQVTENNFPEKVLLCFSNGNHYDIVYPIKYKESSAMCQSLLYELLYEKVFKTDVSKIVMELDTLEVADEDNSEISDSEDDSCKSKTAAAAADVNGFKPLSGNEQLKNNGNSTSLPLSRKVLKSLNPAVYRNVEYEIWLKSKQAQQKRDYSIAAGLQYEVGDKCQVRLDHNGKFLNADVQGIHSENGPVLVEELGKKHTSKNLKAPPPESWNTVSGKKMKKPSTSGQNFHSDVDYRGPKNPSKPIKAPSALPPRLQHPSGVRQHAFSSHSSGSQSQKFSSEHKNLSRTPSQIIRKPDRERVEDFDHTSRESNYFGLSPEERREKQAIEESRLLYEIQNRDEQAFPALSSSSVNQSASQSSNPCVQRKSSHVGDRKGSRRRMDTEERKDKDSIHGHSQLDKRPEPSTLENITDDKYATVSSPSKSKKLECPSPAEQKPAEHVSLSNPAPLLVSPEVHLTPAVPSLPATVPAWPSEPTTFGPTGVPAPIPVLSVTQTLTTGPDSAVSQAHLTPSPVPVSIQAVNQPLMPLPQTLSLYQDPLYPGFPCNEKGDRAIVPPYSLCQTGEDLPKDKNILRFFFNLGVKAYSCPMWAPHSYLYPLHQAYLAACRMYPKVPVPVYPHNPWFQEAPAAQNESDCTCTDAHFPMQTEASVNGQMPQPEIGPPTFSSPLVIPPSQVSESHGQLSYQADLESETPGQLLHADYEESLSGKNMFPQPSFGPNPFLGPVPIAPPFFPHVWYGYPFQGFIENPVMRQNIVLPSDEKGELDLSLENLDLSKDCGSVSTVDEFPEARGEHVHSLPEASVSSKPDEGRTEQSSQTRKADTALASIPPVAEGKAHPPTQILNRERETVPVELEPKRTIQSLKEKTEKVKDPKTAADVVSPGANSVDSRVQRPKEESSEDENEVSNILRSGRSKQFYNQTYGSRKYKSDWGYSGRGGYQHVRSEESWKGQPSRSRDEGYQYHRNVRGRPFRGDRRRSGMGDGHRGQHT
UniProt P57740: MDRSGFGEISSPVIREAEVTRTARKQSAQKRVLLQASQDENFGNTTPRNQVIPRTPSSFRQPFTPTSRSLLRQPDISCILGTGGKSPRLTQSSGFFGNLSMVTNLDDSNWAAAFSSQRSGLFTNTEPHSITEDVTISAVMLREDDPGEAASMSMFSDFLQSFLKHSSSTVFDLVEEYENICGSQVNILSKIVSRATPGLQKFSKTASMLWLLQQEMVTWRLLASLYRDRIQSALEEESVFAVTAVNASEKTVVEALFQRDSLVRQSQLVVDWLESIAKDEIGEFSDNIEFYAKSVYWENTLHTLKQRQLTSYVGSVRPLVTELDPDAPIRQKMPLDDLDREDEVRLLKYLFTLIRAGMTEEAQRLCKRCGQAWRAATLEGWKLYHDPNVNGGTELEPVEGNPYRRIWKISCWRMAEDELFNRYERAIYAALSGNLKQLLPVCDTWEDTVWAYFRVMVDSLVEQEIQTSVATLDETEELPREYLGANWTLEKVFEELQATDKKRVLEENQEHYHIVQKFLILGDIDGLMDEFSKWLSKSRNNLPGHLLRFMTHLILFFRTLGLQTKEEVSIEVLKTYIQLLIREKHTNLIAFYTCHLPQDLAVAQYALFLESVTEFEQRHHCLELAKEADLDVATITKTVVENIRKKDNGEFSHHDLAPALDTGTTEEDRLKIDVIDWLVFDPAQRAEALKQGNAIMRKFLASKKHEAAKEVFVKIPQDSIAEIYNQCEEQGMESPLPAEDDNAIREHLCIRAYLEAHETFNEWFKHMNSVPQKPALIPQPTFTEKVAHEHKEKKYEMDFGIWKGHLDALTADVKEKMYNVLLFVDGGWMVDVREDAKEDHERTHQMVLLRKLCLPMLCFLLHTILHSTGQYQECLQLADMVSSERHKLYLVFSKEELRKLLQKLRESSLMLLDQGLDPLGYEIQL

Assays:
Test in all cases: log2 fold change, soluble protein after heating vs DMSO (PISA); higher = thermal stabilisation; K562 cells, 10 uM, 30 min; active = over 0.2 and 3.5 SD of the protein, either way, in both replicates (recomputed)
[1] = compound: CNC(=O)C1=CC=CC=C1NC2=NC(=NC=C2Cl)NC3=C(C=C(C=C3)N4CCOCC4)OC
How it was run: (§1)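 K562 cells at 2×10^6 cells/mL were treated for 30 min with 10 μM compound, and aliquots were heated for 3 min over 48°C-58°C before pooling. Extraction used PBS with 0.5% NP-40 at 4°C, and soluble protein was the supernatant after 21,000xg for 90 min, measured by TMTpro 16plex LC-MS/MS with channel sums equalised. Thermal stability values, relative to control samples and from duplicates, are log2 fold changes.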

sotrastaurin = compound: CN1CCN(c2nc(C3=C(c4c[nH]c5ccccc45)C(=O)NC3=O)c3ccccc3n2)CC1 [sotrastaurin]
How it was run: as §1

Tubastatin A = compound: CN1CCc2c(c3ccccc3n2Cc2ccc(C(=O)NO)cc2)C1 [Tubastatin A]
How it was run: as §1

saracatinib = compound: CN1CCN(CCOc2cc(OC3CCOCC3)c3c(Nc4c(Cl)ccc5c4OCO5)ncnc3c2)CC1 [saracatinib]
How it was run: as §1

defactinib = compound: CNC(=O)c1ccc(Nc2ncc(C(F)(F)F)c(NCc3nccnc3N(C)S(C)(=O)=O)n2)cc1 [defactinib]
How it was run: as §1

rucaparib = compound: CNCc1ccc(-c2[nH]c3cc(F)cc4c3c2CCNC4=O)cc1 [rucaparib]
How it was run: as §1

[2] = compound: CNc1nc(-c2ccc3c(N)n[nH]c3c2)cc(N2C[C@@H](C(=O)NC3CCCCC3)CC[C@H]2C)n1
How it was run: as §1

encorafenib = compound: COC(=O)N[C@@H](C)CNc1nccc(-c2cn(C(C)C)nc2-c2cc(Cl)cc(NS(C)(=O)=O)c2F)n1 [encorafenib]
How it was run: as §1

[3] = compound: COC(=O)[C@H](CCSC)NC(=O)C1=C(C=C(C=C1)NC[C@H](CS)N)C2=CC=CC=C2
How it was run: as §1

alvocidib = compound: CN1CC[C@H](c2c(O)cc(O)c3c(=O)cc(-c4ccccc4Cl)oc23)[C@H](O)C1 [alvocidib]
How it was run: as §1

Measured: log2 fold change

ORMDL3 (UniProt Q8N138)
inactive: [1] -0.14

OAF (UniProt Q86UD1)
inactive: sotrastaurin 0.139 | [1] 0.043

NUDT7 (UniProt P0C024)
inactive: sotrastaurin 0.035 | Tubastatin A -0.045 | [1] 0.052

OXR1 isoform 2 (UniProt Q8N573)
inactive: saracatinib -0.138 | Tubastatin A -0.038 | defactinib -0.067 | rucaparib -0.008 | [2] 0.092 | encorafenib -0.022 | [3] 0.047

ORC3 (UniProt Q9UBD5)
inactive: rucaparib 0.061 | encorafenib 0.032

PABPC1 (UniProt E5RJM8)
inactive: sotrastaurin 0.076

OPA3 isoform 2 (UniProt Q9H6K4)
inactive: saracatinib 0.074 | alvocidib -0.044 | [1] 0.039 | defactinib 0 | [2] -0.226 | [3] -0.142

OAS3 (UniProt Q9Y6K5)
inactive: saracatinib -0.087 | sotrastaurin 0.02 | [2] -0.121

OVCA2 (UniProt Q8WZ82)
inactive: rucaparib 0.116 | encorafenib -0.052

ORMDL1 (UniProt Q9P0S3)
inactive: sotrastaurin -0.024 | Tubastatin A -0.074 | [1] 0.145 | rucaparib -0.102 | encorafenib -0.072

ORC6 (UniProt Q9Y5N6)
inactive: sotrastaurin 0.011 | rucaparib 0.017 | encorafenib -0.104

ODF2L isoform 4 (UniProt Q9ULJ1)
inactive: defactinib -0.015 | rucaparib -0.036 | encorafenib -0.119 | [3] -0.023

OSBPL6 isoform 5 (UniProt Q9BZF3)
inactive: sotrastaurin -0.097 | [1] 0.063 | rucaparib 0.557 | encorafenib 0.271

NUF2 (UniProt Q9BZD4)
inactive: saracatinib -0.277 | alvocidib 0.155 | defactinib 0.152 | [2] 0.199 | [3] -0.116

ORAI1 (UniProt Q96D31)
inactive: Tubastatin A -0.115 | [1] -0.038 | defactinib -0.056 | rucaparib 0.031 | encorafenib 0.021 | [3] -0.105

OPA1 isoform 2 (UniProt O60313)
inactive: saracatinib -0.072 | sotrastaurin -0.005 | Tubastatin A 0.054 | [1] -0.047 | defactinib -0.024 | rucaparib -0.001 | [2] 0.064 | encorafenib 0.056 | [3] -0.047

P4HB (UniProt H7BZ94)
inactive: sotrastaurin 0.262

OSBPL11 (UniProt Q9BXB4)
inactive: [1] 0.008

NUDT6 (UniProt P53370)
inactive: saracatinib 0.063 | Tubastatin A 0.098 | [1] 0.014 | defactinib 0.066 | rucaparib -0.38 | [2] -0.023 | encorafenib -0.024 | [3] -0.087

PABPC1 (UniProt H0YAR2)
inactive: sotrastaurin -0.104

NXF1 (UniProt Q9UBU9)
inactive: Tubastatin A 0.085

P2RY1 (UniProt P47900)
inactive: saracatinib 0.213 | [1] -0.011 | [2] 0.065

OBSCN (UniProt A6NGQ3)
inactive: sotrastaurin 0.128 | alvocidib 0.073 | Tubastatin A 0 | rucaparib 0.061 | encorafenib 0.052

OGFR (UniProt Q9NZT2)
inactive: saracatinib -0.044 | sotrastaurin -0.146 | Tubastatin A 0.089 | [1] -0.028 | defactinib -0.094 | rucaparib 0.132 | [2] 0.009 | encorafenib 0.031 | [3] -0.154

NUDT18 (UniProt Q6ZVK8)
inactive: sotrastaurin 0.036 | alvocidib 0.039 | Tubastatin A -0.073 | [1] 0.08 | defactinib 0.102 | rucaparib 0.14 | encorafenib 0.025 | [3] 0.103

NUP205 (UniProt Q92621)
inactive: saracatinib -0.003 | sotrastaurin -0.057 | Tubastatin A 0.023 | [1] -0.024 | defactinib -0.132 | rucaparib -0.065 | [2] -0.012 | encorafenib 0.096 | [3] -0.038

ORC2 (UniProt Q13416)
inactive: sotrastaurin -0.131 | Tubastatin A -0.056 | [1] -0.077 | rucaparib 0.083 | encorafenib 0.038

NUDT22 (UniProt Q9BRQ3)
inactive: saracatinib -0.196 | defactinib 0.052 | [2] -0.07 | [3] -0.189

NUMBL (UniProt Q9Y6R0)
active: sotrastaurin -0.412
inactive: saracatinib -0.088 | [1] 0.144 | defactinib -0.101 | [2] -0.015 | [3] 0.098

NUDT21 (UniProt O43809)
inactive: saracatinib 0.028 | sotrastaurin 0.024 | Tubastatin A 0.01 | [1] -0.166 | defactinib 0.045 | rucaparib 0.004 | [2] -0.025 | encorafenib -0.015 | [3] -0.034

OGFOD2 (UniProt Q6N063)
inactive: saracatinib 0.095 | Tubastatin A -0.08 | [1] 0.094 | defactinib -0.076 | rucaparib -0.029 | [2] 0.009 | encorafenib 0.133 | [3] 0.032

ODC1 (UniProt P11926)
inactive: saracatinib 0.031 | [1] 0.008 | [2] 0.033

OXLD1 (UniProt Q5BKU9)
inactive: rucaparib 0 | encorafenib -0.125

NSUN7 (UniProt Q8NE18)
inactive: alvocidib -0.008 | Tubastatin A 0.059 | [1] 0.056 | defactinib 0.068 | rucaparib -0.108 | encorafenib 0.178 | [3] -0.013

NUDCD2 (UniProt Q8WVJ2)
inactive: saracatinib -0.115 | sotrastaurin -0.123 | Tubastatin A 0.051 | [1] 0.002 | defactinib -0.256 | rucaparib -0.053 | [2] 0 | encorafenib 0.048 | [3] 0

NUDT17 (UniProt P0C025)
inactive: sotrastaurin -0.512 | alvocidib -0.014 | Tubastatin A 0.109 | [1] 0.97 | defactinib -0.139 | [3] 0.008

OTUD4 (UniProt Q01804)
inactive: saracatinib -0.031 | sotrastaurin -0.017 | Tubastatin A -0.018 | [1] -0.014 | defactinib 0.054 | rucaparib 0.136 | [2] 0.019 | encorafenib 0.036 | [3] 0.001

P3H3 (UniProt Q8IVL6)
inactive: Tubastatin A -0.136

NUP107 (UniProt P57740)
inactive: saracatinib -0.017 | sotrastaurin -0.103 | Tubastatin A 0.067 | [1] 0.023 | defactinib -0.081 | rucaparib 0.041 | [2] 0.02 | encorafenib 0.111 | [3] 0
